Experimental data from the supplement of paper PMC8256030.
Where “and” joins values, the source holds several entries; their conditions need not be identical. Identical values can stand only once. Counter-ions that a name gives are not always drawn. The list shows a part of the results. Single values are uncertain here, since repeats match poorly.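 HEK293T cells were given each compound shortly before transfection with a reporter in which red mCherry is followed by the SARS-CoV-2 frameshift element and then GFP in the −1 frame, so GFP appears only after frameshifting.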

How the values were obtained:
[1] = tested on: HEK293T; experiment: percent viability (nuclei count) relative to control; higher = more viable cells; settings: 10 µM; 24 h
[2] = tested on: SARS-CoV-2 -1 PRF reporter mCherry-FSE-GFP(-1); experiment: mCherry (red) intensity as percent of control; higher = higher upstream reporter expression; settings: 10 µM; 24 h; HEK293T
[3] = tested on: SARS-CoV-2 -1 PRF reporter mCherry-FSE-GFP(-1); experiment: percent effect, decrease of GFP/mCherry ratio (-1 PRF reporter) relative to controls; higher = stronger frameshift inhibition; settings: 10 µM; 24 h; HEK293T

Compound | percent viability [1] | mCherry [2] | percent effect [3]
CNCC(O)c1ccc(O)cc1 (configuration not stated) | 293% | 93% | -0.477%
C#CC(C)(O)CC (configuration not stated) | 77.3% | 112% | -2.21%
N[C@@H]1C[C@H]1c1ccccc1.N[C@H]1C[C@@H]1c1ccccc1 [tranylcypromine] | 295% | 111% | -6.14%
C=C/C=C\CC1=C(C)[C@@H](OC(=O)[C@@H]2[C@@H](C=C(C)C)C2(C)C)CC1=O | 162% | 104% | -4.57%
C[C@]12CCC(=O)C=C1C=C[C@@H]1[C@@H]2CC[C@@]2(C)[C@H]1CC[C@@]2(O)CCC(=O)O [canrenoic acid] | 124% | 72.1% | 0.0109%
CC[C@@H](CO)NC(=O)[C@@H]1C=C2c3cccc4c3c(cn4C)C[C@H]2N(C)C1 [methysergide] | 178% | 86.8% | -2.81%
CC(=O)O[C@H]1C[C@@]2(C)[C@@H](C[C@@H](O)[C@H]3[C@@]4(C)CC[C@@H](O)[C@@H](C)[C@@H]4CC[C@@]32C)/C1=C(\CCC=C(C)C)C(=O)O [fusidic acid] |  | 90.1% | -0.934%
CN1CC[C@]23c4c5ccc(O)c4O[C@H]2C(=O)CC[C@H]3[C@H]1C5 [hydromorphone] | 130% | 114% | 2.02%
N/C(CC(O)COc1cccc2ccccc12)=N/O (configuration not stated) [nadoxolol] |  | 54.9% | 1.27%
O=C(C[S+]([O-])C(c1ccccc1)c1ccccc1)NO (configuration not stated) [adrafinil] | 260% | 93.6% | -4.79%
CCC(C)(CC)OC(N)=O [emylcamate] | 46.4% | 85.1% | -10.8%
Clc1cccc(SC2CCNCC2)n1 [anpirtoline] | 142% | 86.6% | -12.2%
O=C(O)c1ccc2[nH]cc(CCCCN3CC=C(c4ccccc4)CC3)c2c1 [carmoxirole] | 120% | 126% | 0.595%
COc1ccc(CN2CCNCC2)c(OC)c1OC | 96.2% | 111% | 1.06%
CO/N=C(\C(=O)N[C@@H]1C(=O)N2C(C(=O)[O-])=C(C[N+]3(C)CCCC3)CS[C@H]12)c1csc(N)n1 [Cefepime] |  | 108% | -2.35%
O=C1CCCCC1CN1CCCCC1 (configuration not stated) [pimeclone] | 125% | 77.8% | 0.763%
O=C1C=C2C=C[C@@H]3C[C@@]2(O1)[C@H]1CCCCN31 [securinine] | 26.1% | 20% | -2.46%
CN1[C@@H]2CC[C@H]1C[C@@H](OC(=O)[C@H](CO)c1ccccc1)C2 [Levsin] | 72.2% | 130% | 3.76%
CNC(C)CC1CCCC1 (configuration not stated) [cyclopentamine] | 154% | 91.5% | -0.763%
Cc1ccc(-n2nccn2)c(C(=O)N2CCN(c3nc4cc(Cl)ccc4o3)CC[C@H]2C)c1 [Suvorexant] | 229% | 103% | 0.699%
C[C@]12CCC(=O)C=C1C=C[C@@H]1[C@@H]2CC[C@@]2(C)[C@H]1CC[C@@]2(O)CCC(=O)O [Potassium Canrenoate] | 245% | 76.4% | -3.38%
C#CCN(C)Cc1ccccc1 [pargyline] |  | 102% | -7.35%
C=CCN1CC[C@]23CCCC[C@H]2[C@H]1Cc1ccc(O)cc13 [Lorfan] | 228% | 106% | -0.715%
CN[C@@H]1CCc2[nH]c3ccc(C(N)=O)cc3c2C1 [frovatriptan] |  | 99.1% | -1.45%

Compound | percent viability [1] | mCherry [2] | percent effect [3]
CCCCOC(=O)c1ccccc1C(=O)OCCCC | 295% | 91.1% | 0.179%
N=C(N=C(N)N)N1CCOCC1 [Moroxydine·HCl] |  | 221% | -0.592%
CCc1c(Cl)c(O)c(Cl)c(O)c1C(=O)O[C@H]1[C@H](O)[C@H](OC)[C@H](OC/C2=C\C=C\C[C@H](O)/C(C)=C/[C@H](CC)[C@@H](O[C@@H]3OC(C)(C)[C@@H](OC(=O)C(C)C)[C@H](O)[C@@H]3O)/C(C)=C/C(C)=C/C[C@@H]([C@@H](C)O)OC2=O)O[C@@H]1C [Fidaxomicin] |  | 83.2% | -3.09%
N[C@@H]1CONC1=O [cycloserine] |  | 101% | -8.67%
C#CCO[C@H]1CN2CCC1CC2 [talsaclidine] | 186% | 67.9% | -0.0123%
N#Cc1ccc(N2CCN(C(=O)COc3ccc4[nH]cc(CCN)c4c3)CC2)cc1 [Donitriptan monohydrochloride] | 161% | 107% | 1.88%
CCCN1C[C@H](CSC)C[C@@H]2c3cccc4[nH]cc(c34)C[C@H]21 [pergolide] | 200% and 252% | 95.6% and 111% | -1.36% and -5.49%
[N-]=[N+]=CC(=O)OC[C@H](N)C(=O)O | 241% | 88.6% | 2.16%
CC(C)(C)NCC(O)c1cc(Cl)c(N)c(Cl)c1 (configuration not stated) [clenbuterol] | 186% and 315% | 110% and 91% | 0.528% and -0.775%
Cc1c(C)c2c(c(C)c1O)CC[C@@](C)(CCC[C@H](C)CCC[C@H](C)CCCC(C)C)O2 |  | 87.1% | 1.01%
CN1CCCC(=C(c2cccs2)c2cccs2)C1 [tipepidine] | 175% | 84.5% | -4.31%
CCC(=O)OC1(c2ccccc2)CCN(C)CC1C (configuration not stated) [alphaprodine] | 237% | 108% | 1.14%
CC[C@@H](CO)NC(=O)[C@@H]1C=C2c3cccc4c3c(cn4C)C[C@H]2N(C)C1 [Sansert] | 324% | 119% | -4.78%
Clc1ccc(C2(Cn3cncn3)OCCO2)c(Cl)c1 [azaconazole] | 150% | 102% | -2.19%
C=CCC1(C(C)CCC)C(=O)NC(=O)NC1=O (configuration not stated) [secobarbital] | 334% | 91.7% | -1.06%
CCOC(=O)C1(c2ccccc2)CCNCC1 | 283% | 92.6% | -0.144%
CCCC(C)C1(CC)C(=O)NC(=S)NC1=O (configuration not stated) | 118% | 100% | 1.34%
CC[C@@H](CO)NC(=O)[C@@H]1C=C2c3cccc4[nH]cc(c34)C[C@H]2N(C)C1 [methylergometrine] | 135% | 112% | -5.34%
c1ccc2c(c1)CCN1CCNCC21 (configuration not stated) | 152% | 96.8% | -0.777%
Cc1cc(C)cc(C(=O)O[C@H]2C[C@H]3CC[C@@H](C2)N3C)c1 [tropanserin] | 99.7% | 105% | -0.436%
CC1Sc2c(C(=O)O)c(=O)c3cc(F)c(N4CCNCC4)cc3n21 (configuration not stated) [ulifloxacin] | 174% | 98.1% | -0.726%
CCN1CCCC1CNC(=O)C(O)(c1ccccc1)c1ccccc1 (configuration not stated) [epicainide] | 15.6% | 37% | -8.89%
OC[C@@H](O)[C@H]1O[C@@H]2O[C@H](C(Cl)(Cl)Cl)O[C@@H]2[C@H]1O | 174% | 110% | -3.84%
CCC(CC)COC(C(=O)OCCN(C)C)(c1ccccc1)c1ccccc1 [denaverine] | 362% | 39% | -0.314%

Compound | percent viability [1] | mCherry [2] | percent effect [3]
CNC1(c2ccccc2Cl)CCCCC1=O (configuration not stated) [ketamine] | 323% | 90.8% | -3.5%
CC(C)NCC(O)c1ccccc1Cl (configuration not stated) [clorprenaline] | 132% | 73.4% | -2.14%
CC[C@@H](c1cccc(O)c1)[C@@H](C)CN(C)C [tapentadol] | 102% and 84.6% | 94.8% and 102% | -2.82% and -3.19%
CCCCCCCCC(=O)NCc1ccc(O)c(OC)c1 [nonivamide] | 420% | 97% | -7.39%
CCN(CC)CCN1C(=O)CN=C(c2ccccc2F)c2cc(Cl)ccc21 [flurazepam] | 120% | 104% | 1.46%
CC(N)Cc1ccc(O)cc1 (configuration not stated) | 279% | 86.2% | -1.67%
CCOc1ccc2c3c1O[C@H]1[C@@H](O)C=C[C@H]4[C@@H](C2)N(C)CC[C@@]341 | 290% | 88.5% | 0.202%
CC(C)(C)OC(=O)c1ncn2c1[C@@H]1CCCN1C(=O)c1c(Br)cccc1-2 [bretazenil] | 169% | 104% | -0.693%
C=CC[C@]1(O)CC[C@H]2[C@@H]3CCC4=CCCC[C@@H]4[C@H]3CC[C@@]21C [allylestrenol] | 213% | 111% | -2.86%
S=C=NCc1ccccc1 | 16.2% | 21.2% | -1.48%
CN(C)C(=O)Oc1cccc([N+](C)(C)C)c1 [neostigmine bromide] | 148% and 415% | 91.5% and 108% | -7% and -5.34%
CCc1c(C(=O)C(N)=O)c2c(OCC(=O)O)cccc2n1Cc1ccccc1 [varespladib] | 78.1% | 98.3% | -2.48%
CC(c1ccccc1)C(C)(C)N (configuration not stated) [pentorex] | 201% | 101% | -3.14%
O=C(O)C(=O)c1cn(Cc2ccccc2)c2ccc(-c3ccc(OC(F)(F)F)cc3)cc12 [tiplasinin] | 120% | 84.7% | -5.35%
CCCC(C)C1(CC)C(=O)NC(=S)NC1=O (configuration not stated) [thiopental sodium] | 107% | 100% | -4.86%
CCC(Br)(CC)C(=O)NC(N)=O [carbromal] | 150% | 81.6% | 2.4%
CN1C[C@H](C(=O)N[C@]2(C)O[C@@]3(O)[C@@H]4CCCN4C(=O)[C@H](Cc4ccccc4)N3C2=O)C=C2c3cccc4[nH]cc(c34)C[C@H]21 [Ergotamine] | 202% and 292% | 81.3% and 84.5% | -5.07% and -2.85%
CCC1(CC)C(=O)NC(=O)NC1=O [barbital sodium] | 147% | 103% | -0.759%
CCC(C)(C)C1C(=O)N2CCCC2C2(O)OC(NC(=O)C3CC4c5cccc6[nH]cc(c56)CC4N(C)C3)(C(C)C)C(=O)N12 (configuration not stated) [Ergoloid mesylate] | 340% | 100% | 1.93%
CNC(=O)Oc1ccccc1OC(C)C | 313% | 105% | -1.42%
NCC(CC(=O)O)c1ccc(Cl)cc1 (configuration not stated) [baclofen] | 281% | 79.7% | 0.71%
COc1cccc(C2(O)CCCCC2CN(C)C)c1 (configuration not stated) | 294% | 83.8% | -3.19%
CN1CC[C@]23c4c5ccc(O)c4O[C@H]2[C@@H](O)C=C[C@H]3[C@H]1C5 | 254% | 87% | -1.69%
Cc1cccc(C)c1NC(=O)CN1CCCC1=O [nefiracetam] | 101% | 67.8% | -3.17%
